# Measured values taken from publication PMC6794377.
# No constants are given. Whether binding was seen depends on the method and setting. For some assays here: Binding calls can cover weak binding; strength is not graded here. For some assays here: Tags and fused reporters may be left off the sequences shown. For some assays here: In cells and extracts the contact can be indirect.
# Experiments:
# [1] = molecular target: T1, TLN161, N-terminal appended domain of hThrRS-L (Met1-Ile161), Gal4 DNA binding domain fusion (human) (UniProt A2RTX5); assay: two-hybrid; pairwise: pGADT7 construct and pGBKT7 construct together in Y2HGold; growth on QDO/X/A (SD/QDO/X) plates
# T1 sequence: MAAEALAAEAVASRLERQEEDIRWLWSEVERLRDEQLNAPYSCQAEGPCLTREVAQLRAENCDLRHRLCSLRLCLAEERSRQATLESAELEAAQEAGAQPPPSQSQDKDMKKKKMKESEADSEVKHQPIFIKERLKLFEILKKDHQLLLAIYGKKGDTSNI
# [2] = molecular target: T2, native p43 (AIMP1), endogenous in human cells (human (endogenous in HEK293T and HeLa)) (UniProt Q12904); assay: co-IP; transfected HEK293T lysate, IP with anti-p43 antibodies; western blotting
# T2 sequence: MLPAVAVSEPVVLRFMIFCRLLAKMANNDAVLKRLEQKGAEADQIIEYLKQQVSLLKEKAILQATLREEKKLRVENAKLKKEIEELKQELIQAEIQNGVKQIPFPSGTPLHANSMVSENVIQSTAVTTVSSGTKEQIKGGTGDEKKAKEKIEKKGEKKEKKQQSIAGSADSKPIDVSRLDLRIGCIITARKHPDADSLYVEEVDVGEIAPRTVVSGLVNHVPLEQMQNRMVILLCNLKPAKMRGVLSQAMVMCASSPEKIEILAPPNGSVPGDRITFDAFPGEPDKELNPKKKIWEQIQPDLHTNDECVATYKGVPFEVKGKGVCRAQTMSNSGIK
binding [1],binding [2],Substance
binds,–,"p43(26-78), Gal4 activation domain fusion (human) (domain or fragment)"
–,no binding,"α-tubulin, endogenous in HEK293T (human (endogenous in HEK293T))"
